From PMC11387234, “Identification of novel inhibitors of the transcriptional coactivator MRTF-A for HCC therapy” (Molecular Therapy Oncology, 2024)
Results are given in words; binding and its absence hold for the method and conditions named. Binding seen in cells or lysates may run through a third protein. Some results given as binding are weak or reduced against the parent protein; the word gives no strength.

Chains of the proteins cited; added tags and fusions are not shown.
UniProt Q96QT4: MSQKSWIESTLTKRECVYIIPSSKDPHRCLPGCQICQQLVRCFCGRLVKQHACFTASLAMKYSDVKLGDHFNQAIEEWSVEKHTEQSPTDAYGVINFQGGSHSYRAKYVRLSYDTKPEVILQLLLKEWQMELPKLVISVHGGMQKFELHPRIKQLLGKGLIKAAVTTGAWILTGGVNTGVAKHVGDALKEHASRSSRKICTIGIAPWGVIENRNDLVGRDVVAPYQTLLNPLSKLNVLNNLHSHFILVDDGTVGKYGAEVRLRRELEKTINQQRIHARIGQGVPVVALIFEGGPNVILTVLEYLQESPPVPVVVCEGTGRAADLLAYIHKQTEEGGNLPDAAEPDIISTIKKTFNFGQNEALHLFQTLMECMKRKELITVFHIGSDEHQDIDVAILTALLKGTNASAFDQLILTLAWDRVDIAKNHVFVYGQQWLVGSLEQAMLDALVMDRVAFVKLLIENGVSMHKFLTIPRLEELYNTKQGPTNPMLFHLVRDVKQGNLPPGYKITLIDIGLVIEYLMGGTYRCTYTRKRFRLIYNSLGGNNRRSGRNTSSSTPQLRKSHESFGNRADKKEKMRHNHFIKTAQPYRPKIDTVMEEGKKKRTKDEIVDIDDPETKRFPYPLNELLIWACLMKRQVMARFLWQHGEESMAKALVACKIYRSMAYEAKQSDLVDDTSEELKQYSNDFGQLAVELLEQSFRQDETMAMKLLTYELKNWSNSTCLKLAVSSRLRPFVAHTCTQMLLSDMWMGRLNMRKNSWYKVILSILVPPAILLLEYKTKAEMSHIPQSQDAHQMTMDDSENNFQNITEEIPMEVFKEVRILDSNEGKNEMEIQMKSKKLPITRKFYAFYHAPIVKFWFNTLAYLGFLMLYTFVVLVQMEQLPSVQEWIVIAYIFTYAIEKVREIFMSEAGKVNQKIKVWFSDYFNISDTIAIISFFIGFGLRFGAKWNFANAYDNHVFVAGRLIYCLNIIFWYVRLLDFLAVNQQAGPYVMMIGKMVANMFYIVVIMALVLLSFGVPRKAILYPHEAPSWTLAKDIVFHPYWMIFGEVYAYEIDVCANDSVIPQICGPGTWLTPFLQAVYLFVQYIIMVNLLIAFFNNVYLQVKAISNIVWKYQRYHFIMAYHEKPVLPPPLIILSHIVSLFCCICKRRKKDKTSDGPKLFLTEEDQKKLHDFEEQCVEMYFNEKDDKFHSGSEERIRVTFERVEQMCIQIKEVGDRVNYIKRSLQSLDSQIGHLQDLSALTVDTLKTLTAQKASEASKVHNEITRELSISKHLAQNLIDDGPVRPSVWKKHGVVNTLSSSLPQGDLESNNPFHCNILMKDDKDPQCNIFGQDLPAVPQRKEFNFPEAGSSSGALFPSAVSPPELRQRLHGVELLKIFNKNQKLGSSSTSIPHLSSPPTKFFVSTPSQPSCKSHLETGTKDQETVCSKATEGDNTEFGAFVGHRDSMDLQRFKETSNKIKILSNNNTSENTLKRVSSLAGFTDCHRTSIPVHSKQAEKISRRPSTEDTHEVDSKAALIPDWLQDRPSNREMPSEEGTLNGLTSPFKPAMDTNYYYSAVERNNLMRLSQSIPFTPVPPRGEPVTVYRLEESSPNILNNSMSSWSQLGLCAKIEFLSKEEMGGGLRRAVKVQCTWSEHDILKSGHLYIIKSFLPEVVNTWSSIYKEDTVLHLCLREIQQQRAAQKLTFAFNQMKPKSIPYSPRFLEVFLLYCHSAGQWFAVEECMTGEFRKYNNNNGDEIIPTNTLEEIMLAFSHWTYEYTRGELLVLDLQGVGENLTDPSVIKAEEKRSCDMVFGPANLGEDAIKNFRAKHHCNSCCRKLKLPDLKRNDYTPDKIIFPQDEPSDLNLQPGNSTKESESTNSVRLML
UniProt P61586: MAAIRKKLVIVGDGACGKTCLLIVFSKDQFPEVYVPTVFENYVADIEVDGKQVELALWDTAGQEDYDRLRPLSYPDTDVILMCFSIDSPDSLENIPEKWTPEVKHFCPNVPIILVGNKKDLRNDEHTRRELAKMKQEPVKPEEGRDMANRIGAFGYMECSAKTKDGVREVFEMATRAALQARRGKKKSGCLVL

Target: transient receptor potential cation channel TRPM7 (human (endogenous in HuH7)) (UniProt Q96QT4)
Assay: proximity ligation; DuoLink In situ Red kit (mouse/rabbit) on HuH7 cells, endogenous TRPM7 and RhoA, anti-TRPM7/TRPM6 and anti-RhoA primary antibodies; cells treated for 6 h with compound 5 (5 uM), compound 8 or rNS (30 uM); PLA signals counted in 15 cells per condition

binding: binds
Substance: RhoA (from UniProt P61586 1-193)
